Measured values reported in the supplement of paper PMC8728848.
This is one part of the list.

How the values were obtained:
Test in all cases: glycan array binding signal (z-score within array); higher = stronger binding
Conditions in all cases: glycan notation: IUPAC condensed, linker removed
Neu5Ac(a2-6)Gal = molecular target: Neu5Ac(a2-6)Gal
Method in brief: (§1)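 Columns mapping to the same glycan were averaged after glycan names were converted to IUPAC-condensed notation. The data come from 3228 arrays in the Consortium for Functional Glycomics database, limited to those with an available protein sequence. Binding is reported as a within-array Z-score averaged across arrays of one protein sequence and across linkers.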

[1] = molecular target: Neu5Ac(a2-6)Gal(b1-3)GlcNAc(b1-3)[Gal(b1-4)GlcNAc(b1-6)]Gal(b1-4)Glc
Method in brief: as §1

Neu5Ac(a2-6)Gal(b1-4)Glc = molecular target: Neu5Ac(a2-6)Gal(b1-4)Glc
Method in brief: as §1

[2] = molecular target: Neu5Ac(a2-6)Gal(b1-4)GlcNAc
Method in brief: as §1

[3] = molecular target: Neu5Ac(a2-6)Gal(b1-4)GlcNAc(b1-2)Man
Method in brief: as §1

[4] = molecular target: Neu5Ac(a2-6)Gal(b1-4)GlcNAc(b1-2)Man(a1-3)Man(b1-4)GlcNAc(b1-4)GlcNAc
Method in brief: as §1

[5] = molecular target: Neu5Ac(a2-6)Gal(b1-4)GlcNAc(b1-2)Man(a1-3)[Gal(b1-4)GlcNAc(b1-2)Man(a1-6)]Man(b1-4)GlcNAc(b1-4)GlcNAc
Method in brief: as §1

[6] = molecular target: Neu5Ac(a2-6)Gal(b1-4)GlcNAc(b1-2)Man(a1-3)[GlcNAc(b1-2)Man(a1-6)]Man(b1-4)GlcNAc(b1-4)GlcNAc
Method in brief: as §1

[7] = molecular target: Neu5Ac(a2-6)Gal(b1-4)GlcNAc(b1-2)Man(a1-3)[GlcNAc(b1-4)][Neu5Ac(a2-6)Gal(b1-4)GlcNAc(b1-2)Man(a1-6)]Man(b1-4)GlcNAc(b1-4)GlcNAc
Method in brief: as §1

[8] = molecular target: Neu5Ac(a2-6)Gal(b1-4)GlcNAc(b1-2)Man(a1-3)[Man(a1-6)]Man(b1-4)GlcNAc(b1-4)GlcNAc
Method in brief: as §1

[9] = molecular target: Neu5Ac(a2-6)Gal(b1-4)GlcNAc(b1-2)Man(a1-3)[Neu5Ac(a2-3)Gal(b1-4)GlcNAc(b1-2)Man(a1-6)]Man(b1-4)GlcNAc(b1-4)GlcNAc
Method in brief: as §1

[10] = molecular target: Neu5Ac(a2-6)Gal(b1-4)GlcNAc(b1-2)Man(a1-3)[Neu5Ac(a2-6)Gal(b1-4)GlcNAc(b1-2)Man(a1-6)]Man(b1-4)GlcNAc(b1-4)GlcNAc
Method in brief: as §1

[11] = molecular target: Neu5Ac(a2-6)Gal(b1-4)GlcNAc(b1-2)Man(a1-3)[Neu5Ac(a2-6)Gal(b1-4)GlcNAc(b1-2)Man(a1-6)]Man(b1-4)GlcNAc(b1-4)[Fuc(a1-6)]GlcNAc
Method in brief: as §1

[12] = molecular target: Neu5Ac(a2-6)Gal(b1-4)GlcNAc(b1-2)Man(a1-6)Man(b1-4)GlcNAc(b1-4)GlcNAc
Method in brief: as §1

[13] = molecular target: Neu5Ac(a2-6)Gal(b1-4)GlcNAc(b1-2)Man(a1-6)[Gal(b1-4)GlcNAc(b1-2)Man(a1-3)]Man(b1-4)GlcNAc(b1-4)GlcNAc
Method in brief: as §1

[14] = molecular target: Neu5Ac(a2-6)Gal(b1-4)GlcNAc(b1-2)Man(a1-6)[GlcNAc(b1-2)Man(a1-3)]Man(b1-4)GlcNAc(b1-4)GlcNAc
Method in brief: as §1

[15] = molecular target: Neu5Ac(a2-6)Gal(b1-4)GlcNAc(b1-2)Man(a1-6)[Man(a1-3)]Man(b1-4)GlcNAc(b1-4)GlcNAc
Method in brief: as §1

[16] = molecular target: Neu5Ac(a2-6)Gal(b1-4)GlcNAc(b1-2)[Neu5Ac(a2-6)Gal(b1-4)GlcNAc(b1-4)]Man(a1-3)[GlcNAc(b1-4)][Neu5Ac(a2-6)Gal(b1-4)GlcNAc(b1-2)[Neu5Ac(a2-6)Gal(b1-4)GlcNAc(b1-6)]Man(a1-6)]Man(b1-4)GlcNAc(b1-4)GlcNAc
Method in brief: as §1

[17] = molecular target: Neu5Ac(a2-6)Gal(b1-4)GlcNAc(b1-2)[Neu5Ac(a2-6)Gal(b1-4)GlcNAc(b1-4)]Man(a1-3)[GlcNAc(b1-4)][Neu5Ac(a2-6)Gal(b1-4)GlcNAc(b1-4)Man(a1-6)]Man(b1-4)GlcNAc(b1-4)GlcNAc
Method in brief: as §1

[18] = molecular target: Neu5Ac(a2-6)Gal(b1-4)GlcNAc(b1-2)[Neu5Ac(a2-6)Gal(b1-4)GlcNAc(b1-6)]Man(a1-6)[Neu5Ac(a2-6)Gal(b1-4)GlcNAc(b1-2)Man(a1-3)][GlcNAc(b1-4)]Man(b1-4)GlcNAc(b1-4)GlcNAc
Method in brief: as §1

[19] = molecular target: Neu5Ac(a2-6)Gal(b1-4)GlcNAc(b1-3)Gal(b1-3)GlcNAc
Method in brief: as §1

[20] = molecular target: Neu5Ac(a2-6)Gal(b1-4)GlcNAc(b1-3)Gal(b1-4)GlcNAc
Method in brief: as §1

[21] = molecular target: Neu5Ac(a2-6)Gal(b1-4)GlcNAc(b1-3)Gal(b1-4)GlcNAc(b1-2)Man(a1-3)[Neu5Ac(a2-6)Gal(b1-4)GlcNAc(b1-3)Gal(b1-4)GlcNAc(b1-2)Man(a1-6)]GalNAc
Method in brief: as §1

[22] = molecular target: Neu5Ac(a2-6)Gal(b1-4)GlcNAc(b1-3)Gal(b1-4)GlcNAc(b1-3)Gal(b1-4)GlcNAc
Method in brief: as §1

[23] = molecular target: Neu5Ac(a2-6)Gal(b1-4)GlcNAc(b1-3)Gal(b1-4)GlcNAc(b1-3)Gal(b1-4)GlcNAc(b1-2)Man(a1-3)[Neu5Ac(a2-6)Gal(b1-4)GlcNAc(b1-3)Gal(b1-4)GlcNAc(b1-3)Gal(b1-4)GlcNAc(b1-2)Man(a1-6)]GalNAc
Method in brief: as §1

[24] = molecular target: Neu5Ac(a2-6)Gal(b1-4)GlcNAc(b1-3)Gal(b1-4)GlcNAc(b1-3)GalNAc
Method in brief: as §1

[25] = molecular target: Neu5Ac(a2-6)Gal(b1-4)GlcNAc(b1-3)Gal(b1-4)GlcNAc(b1-3)[Neu5Ac(a2-6)Gal(b1-4)GlcNAc(b1-3)Gal(b1-4)GlcNAc(b1-6)]GalNAc
Method in brief: as §1

[26] = molecular target: Neu5Ac(a2-6)Gal(b1-4)GlcNAc(b1-3)Gal(b1-4)GlcNAc(b1-6)[Gal(b1-3)]GalNAc
Method in brief: as §1

[27] = molecular target: Neu5Ac(a2-6)Gal(b1-4)GlcNAc(b1-3)Gal(b1-4)[Fuc(a1-3)]GlcNAc(b1-3)Gal(b1-4)[Fuc(a1-3)]GlcNAc
Method in brief: as §1

[28] = molecular target: Neu5Ac(a2-6)Gal(b1-4)GlcNAc(b1-3)GalNAc
Method in brief: as §1

[29] = molecular target: Neu5Ac(a2-6)Gal(b1-4)GlcNAc(b1-3)[Neu5Ac(a2-6)Gal(b1-4)GlcNAc(b1-6)]GalNAc
Method in brief: as §1

[30] = molecular target: Neu5Ac(a2-6)Gal(b1-4)GlcNAc(b1-6)GalNAc
Method in brief: as §1

[31] = molecular target: Neu5Ac(a2-6)Gal(b1-4)GlcNAc(b1-6)[Gal(b1-3)GlcNAc(b1-3)]Gal(b1-4)Glc
Method in brief: as §1

[32] = molecular target: Neu5Ac(a2-6)Gal(b1-4)GlcNAc(b1-6)[Gal(b1-3)]GalNAc
Method in brief: as §1

[33] = molecular target: Neu5Ac(a2-6)Gal(b1-4)GlcNAc6S
Method in brief: as §1

Neu5Ac(a2-6)GalNAc = molecular target: Neu5Ac(a2-6)GalNAc
Method in brief: as §1

[34] = molecular target: Neu5Ac(a2-6)GalNAc(b1-4)GlcNAc
Method in brief: as §1

[35] = molecular target: Neu5Ac(a2-6)GalNAc(b1-4)GlcNAc6S
Method in brief: as §1

B1: Erv46-EDTA (Saccharomyces cerevisiae), P39727 (protein)
chain: MKFLVNVALVFMVVYISYIYAAAPEHHHHHHDYDIPTTENLYFQGAMDSVVTRPQLVVDRDRHAKLELNMDVTFPSMPCDLVNLDIMDDSGEMQLDILDAGFTMSRLNSEGRPVGDATELHVGGNGDGTAPVNNDPNYCGPCYGAKDQSQNENLAQEEKVCCQDCDAVRSAYLEAGWAFFDGKNIEQCEREGYVSKINEHLNEGCRIKGSAQINRIQGNLHFAPGKPYQNAYGHFHDTSLYDKTSNLNFNHIINHLSFGKPIQSHSKLLGNDKRHGGAVVATSPLDGRQVFPDRNTHFHQFSYFAKIVPTRYEYLDNVVIETAQFSATFHSRPLAGGRDKDHPNTLHVRGGIPGMFVFFEMSPLKVINKEQ
Neu5Ac(a2-6)Gal
  glycan array binding signal (z-score): -0.121
[1]
  glycan array binding signal (z-score): -0.366
Neu5Ac(a2-6)Gal(b1-4)Glc
  glycan array binding signal (z-score): -0.082
[2]
  glycan array binding signal (z-score): -0.528
[3]
  glycan array binding signal (z-score): -0.519
[4]
  glycan array binding signal (z-score): -0.652
[5]
  glycan array binding signal (z-score): -0.581
[6]
  glycan array binding signal (z-score): -0.441
[7]
  glycan array binding signal (z-score): -0.444
[8]
  glycan array binding signal (z-score): 0.34
[9]
  glycan array binding signal (z-score): -0.318
[10]
  glycan array binding signal (z-score): -0.293
[11]
  glycan array binding signal (z-score): 1.28
[12]
  glycan array binding signal (z-score): -0.429
[13]
  glycan array binding signal (z-score): -0.053
[14]
  glycan array binding signal (z-score): -0.805
[15]
  glycan array binding signal (z-score): -0.307
[16]
  glycan array binding signal (z-score): -0.269
[17]
  glycan array binding signal (z-score): -0.026
[18]
  glycan array binding signal (z-score): -0.824
[19]
  glycan array binding signal (z-score): -0.86
[20]
  glycan array binding signal (z-score): 0.07
[21]
  glycan array binding signal (z-score): 0.338
[22]
  glycan array binding signal (z-score): -0.315
[23]
  glycan array binding signal (z-score): 3.54
[24]
  glycan array binding signal (z-score): -0.032
[25]
  glycan array binding signal (z-score): 0.134
[26]
  glycan array binding signal (z-score): -0.333
[27]
  glycan array binding signal (z-score): 0.355
[28]
  glycan array binding signal (z-score): -0.433
[29]
  glycan array binding signal (z-score): -0.309
[30]
  glycan array binding signal (z-score): -0.855
[31]
  glycan array binding signal (z-score): 0.307
[32]
  glycan array binding signal (z-score): -0.492
[33]
  glycan array binding signal (z-score): -0.686
Neu5Ac(a2-6)GalNAc
  glycan array binding signal (z-score): -1.03
[34]
  glycan array binding signal (z-score): -0.615
[35]
  glycan array binding signal (z-score): -0.583
